Assay results: publication PMC11187126, “Structure and dynamics of the pyroglutamylated RF-amide peptide QRFP receptor GPR103” (Nature Communications, 2024)
Residue numbers refer to the chain shown, from its start. This continues a long series; more values of the same kind are listed elsewhere. No end group written: not given here.

What was measured:
Type in all cases: cell-based
[1] = target: T1, wild-type GPR103 (Homo sapiens, UniProt Q96P65); assay: TGFα shedding assay, HEK293 cells; WT titrated to lower expression (1:1 to 1:50); details: WT (1:20)
T1 construct: we used human full-length QRFPR-encoding plasmids; expressed in transfected cells; host or cells: HEK293 cells, pCAGGS vector
T1 sequence (Q96P65 1-431): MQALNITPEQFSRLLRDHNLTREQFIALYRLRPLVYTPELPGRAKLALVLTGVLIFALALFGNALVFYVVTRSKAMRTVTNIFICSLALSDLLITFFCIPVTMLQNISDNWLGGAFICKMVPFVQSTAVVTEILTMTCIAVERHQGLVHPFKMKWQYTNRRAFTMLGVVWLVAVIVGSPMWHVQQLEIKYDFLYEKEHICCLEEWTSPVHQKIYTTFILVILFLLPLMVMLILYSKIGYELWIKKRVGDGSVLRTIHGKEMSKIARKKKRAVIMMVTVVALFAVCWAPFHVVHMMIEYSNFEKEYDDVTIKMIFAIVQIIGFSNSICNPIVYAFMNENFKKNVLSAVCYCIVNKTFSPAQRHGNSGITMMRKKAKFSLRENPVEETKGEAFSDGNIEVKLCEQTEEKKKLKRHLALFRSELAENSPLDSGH
Experimental: (§1) For the TGFα shedding assay and the flow cytometry analysis, we used human full-length QRFPR-encoding plasmids. Specifically, GPR103 was N-terminally modified with an HA signal sequence followed by a FLAG epitope and then a flexible linker ([…]; the FLAG epitope is underlined) and inserted into the pCAGGS vector. Plasmid encoding GPR103 mutants were generated using Quickchange Site-Directed Mutagensis kit (Agilent).
The TGFα shedding assay was performed as described previously with minor modifications. Plasmid transfection was performed in a 6-well plate with a mixture of 500 ng (per well in a 6-well plate) AP-TGFα-encoding plasmid and 200 ng GPR103-encoding plasmid. […] Absorbance at 405 nm of the plates was measured using a microplate reader (SpectraMax 340 PC384, Molecular Devices) before and after 1-h incubation at room temperature. Ligand-induced AP-TGFα release was calculated by subtracting spontaneous AP-TGFα release signal from ligand-induced AP-TGFα release signal. […]
(§2) mutants. Data are presented as mean values ± SEM, normally n=3-5; dots), each performed in triplicate. b-d Cell-surface expression (b) and QRFP26-in-duced activation of GPR103 (c, d) were analyzed by the flow cytometry and the TGFα shedding assay, respectively. From the concentration–response curves (a), Emax (c) and ΔpEC50 (d) values relative to the wild type were calculated. […]

[2] = target: T2, GPR103 C98^2.57A (Homo sapiens, UniProt Q96P65, C98A); assay: TGFα shedding assay; Exp. level WT (1:50)
T2 construct: we used human full-length QRFPR-encoding plasmids; expressed in transfected cells; host or cells: HEK293 cells, pCAGGS vector
T2 sequence (Q96P65 1-431 C98A): T1 sequence (Q96P65 1-431) with C98A
Experimental: as §1
(§3) The TGFα shedding assay was performed as described previously with minor modifications. Plasmid transfection was performed in a 6-well plate with a mixture of 500 ng (per well in a 6-well plate) AP-TGFα-encoding plasmid and 200 ng GPR103-encoding plasmid. After 1-day culture, the transfected cells were harvested by trypsinization, pelleted by centrifugation at 190 × g for 5 min, and washed once with 5 mM HEPES (pH 7.4)-containing Hank’s Balanced Salt Solution (HBSS). After centrifugation, the cells were resuspended in 8 mL of the HEPES-containing HBSS. The cell suspension was seeded in a 96-well culture plate (cell plate) at a volume of 90 μL (per well hereafter) and incubated in a 37 °C incubator with 5% CO2 for 30 min. […] After spinning the cell plates at 190 × g for 2 min, 80 μL of conditioned media was transferred to an empty 96-well plate (conditioned media (CM) plate). […] Absorbance at 405 nm of the plates was measured using a microplate reader (SpectraMax 340 PC384, Molecular Devices) before and after 1-h incubation at room temperature. Ligand-induced AP-TGFα release was calculated by subtracting spontaneous AP-TGFα release signal from ligand-induced AP-TGFα release signal. […]
as §2

[3] = target: T3, GPR103 Q184^4.64A (Homo sapiens, UniProt Q96P65, Q184A); assay: TGFα shedding assay; Exp. level WT (1:5)
T3 construct: we used human full-length QRFPR-encoding plasmids; expressed in transfected cells; host or cells: HEK293 cells, pCAGGS vector
T3 sequence (Q96P65 1-431 Q184A): T1 sequence (Q96P65 1-431) with Q184A
Experimental: as §1, §3, §2

[4] = target: T4, GPR103 I26N-termA (Homo sapiens, UniProt Q96P65, I26A); assay: TGFα shedding assay; Exp. level WT (1:20)
T4 construct: we used human full-length QRFPR-encoding plasmids; expressed in transfected cells; host or cells: HEK293 cells, pCAGGS vector
T4 sequence (Q96P65 1-431 I26A): T1 sequence (Q96P65 1-431) with I26A
Experimental: as §1, §3, §2

Emax ([1]; Exp. #4): 67.26 % WT
Emax ([1]; Exp. #5): 61.58 % WT
Emax ([2]; Exp. #1): 92.54 % WT
Emax ([2]; Exp. #2): 77.71 % WT
Emax ([2]; Exp. #3): 87.63 % WT
Emax ([3]; Exp. #1): 102.80 % WT
Emax ([3]; Exp. #2): 94.40 % WT
Emax ([3]; Exp. #3): 102.08 % WT
Emax ([4]; Exp. #1): 99.84 % WT
Emax ([4]; Exp. #2): 82.98 % WT
Emax ([4]; Exp. #3): 102.40 % WT
Substance: TSGPLGNLAEELNGYSRKKGGFSFRF-NH2 [QRFP26]
